Results published in PubChem BioAssay AID504444 (National Center for Advancing Translational Sciences (NCATS), 2011).
The whole screen tested about 360,000 compounds, of which about 7,500 (2.1%) were called active. This list was built around the results that the source calls inconclusive (neither active nor inactive); the mix of calls is not that of the screen. The call rests on the fitted dose curve; in most records, active means well fitted inhibition curve with a large enough effect; inconclusive means small, poorly fitted or top-dose-only effect, or effect the other way; inactive means flat fitted curve, though single readings scatter. Potencies of inconclusive entries are doubtful fits and often do not repeat.

Experiment: Nrf2 qHTS screen for inhibitors; further: nearly all actives have a fitted effect of over 60% in size
Settings: A549 ARE-Fluc reporter, luciferase luminescence, 18-24 h; series mostly up to 46 µM
Procedure, shortened: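 Concentration-response testing used A549 ARE_Fluc cells at 5000 cells/well. Following an 18-24 h compound incubation, viability was read by fluorescence (Ex 405/Em 525) and luciferase output by luminescence.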
Potency means the concentration at half of the fitted maximal effect.

| Structure (SMILES) | Potency |
| --- | --- |
| CC(C)CC(NC(=O)CCC(=O)OCC(=O)[C@@]1(O)CCC2[C@@H]3CCC4=CC(=O)C=C[C@]4(C)C3[C@@H](O)C[C@@]21C)C(=O)O (stereo partly specified) | inconclusive: 0.146 µM [falling, full curve, poor fit] |
| Cc1ccc2occ(-c3cc(-c4ccc(Cl)cc4)nc4c3COc3ccccc3-4)c(=O)c2c1 | inconclusive: 5.17 µM [activator, full curve] |
| CC1CC(C)CN(C(=O)COC(=O)c2cc([N+](=O)[O-])ccc2N2CCOCC2)C1 (stereo unspecified) | inconclusive: 5.8 µM [activator, partial curve, poor fit] |
| C[C@@]12CCC=C[C@H]1[C@H](c1ccc(/C=C/c3ccccc3)cc1F)N(Cc1ccccc1)C2=O | inconclusive: 32.6 µM [falling, single point] |
| CSc1ccccc1NC(=O)c1cc(C2CC2)on1 | inconclusive: 9.2 µM [activator, partial curve] |
| CN1CCN(c2ccc(S(=O)(=O)Nc3ccccc3)cc2[N+](=O)[O-])CC1 | inconclusive: 9.2 µM [falling, partial curve] |
| COc1ccccc1OCCOC(=O)Nc1ccccc1 | inconclusive: 18.4 µM [falling, partial curve, poor fit] |
| Oc1ccc(Nc2nc(-c3ccccc3)nc3ccccc23)cc1 | inconclusive: 29.1 µM [falling, single point] |
| CCOCCc1nn2c(=O)cc(COC(=O)C(CC)c3ccccc3)nc2s1 (stereo unspecified) | inactive |
| N#CCCN1CCNCC1 | inconclusive: 3.26 µM [activator, partial curve, poor fit] |
| COc1ccccc1-n1cnc2cc(NCc3ccccc3O)ccc21 | inactive |
| CCN(c1ccc(NC(=O)CCc2nc3sc4c(c3c(=O)[nH]2)CCCC4)cc1)C(C)C | inconclusive: 13 µM [falling, partial curve] |
| COc1cccc(C(=O)Nc2cc(Cl)c(O)c(Cl)c2)c1 | inactive |
| COc1ccc(C2(CNC(=O)c3cc(OC)c(OC)c(OC)c3)CCCC2)cc1OC | inconclusive: 29.1 µM [activator, single point] |
| COc1ccc(/C=c2\s/c(=C/C(=O)c3ccc(C)cc3)[nH]c2=O)c(OC)c1 | inconclusive: 23.1 µM [falling, single point] |
| Cc1ccccc1NC(=O)CSc1nc(N)c2c3c(sc2n1)CSC(C)(C)C3 | inconclusive: 18.4 µM [falling, single point] |
| COc1ccc(N2CCc3c(C)nc4c(OC)cc(OC)cc4c32)c(OC)c1 | inconclusive: 20.6 µM [falling, partial curve, poor fit] |
| COc1cc(C(=O)Nc2ccc(S(=O)(=O)Nc3onc(C)c3C)cc2)cc(OC)c1OC | inconclusive: 29.1 µM [activator, single point] |
| COc1ccc(NC(=O)CCN2CCN(S(=O)(=O)c3ccc(OC)cc3)CC2)cc1 | inactive |
| CCOC(=O)c1ccc(NC(=O)CN2C(=O)COc3ccc(Cl)cc32)cc1 | inconclusive: 0.058 µM [falling, full curve, poor fit] |
| COc1ccc(CCNC(=O)COc2ccc(S(=O)(=O)NC3CCCCC3)cc2Cl)cc1 | active: 20.6 µM |
| O=C1C=C(/C=C/c2ccccc2)C[C@@H](c2ccc3c(c2)OCO3)C1 | inconclusive: 25.9 µM [falling, single point] |

| Structure (SMILES) | Potency |
| --- | --- |
| COc1ccc(N(Cc2cc3ccccc3[nH]c2=O)S(C)(=O)=O)cc1 | inactive |
| COc1ccc(C2C(C#N)=C(N)Oc3cc(O)ccc32)cc1C (stereo unspecified) | inactive |
| CC1=C(C(=O)OC2CCCC2)C(c2ccccc2Cl)CC(=O)N1 (stereo unspecified) | inconclusive: 23.1 µM [falling, single point] |
| Cc1ccc(OCC(=O)Nc2ccccc2N2CCCC2)c(C)c1 | inconclusive: 18.4 µM [activator, single point] |
| COc1ccc(/C(C)=N/Nc2ccccc2Cl)c(O)c1 | inconclusive: 29.1 µM [activator, single point] |
| O=S(=O)(NCc1ccc(Cl)cc1)c1cccc2cccnc12 | inconclusive: 7.31 µM [falling, partial curve, poor fit] |
| O=C(CCCCCN1C(=O)c2ccccc2C1=O)Nc1ccccc1 | inconclusive: 0.164 µM [falling, full curve, poor fit] |
| CSc1nsc(SCC(=O)Nc2ccc(F)cc2F)n1 | inconclusive: 11.6 µM [activator, partial curve, poor fit] |
| COc1ccc(NS(=O)(=O)c2cc(C(=O)Nc3ccccc3C(=O)O)ccc2C)cc1 | inactive |
| Fc1ccc(COc2ccc(/C=N/n3cnnc3)cc2)cc1 | inactive |
| CC12CCC(C/C1=N/NC(=O)Nc1ccccc1)C2(C)C (stereo unspecified) | inconclusive: 2.91 µM [activator, full curve] |
| Cc1ccc(CNS(=O)(=O)c2ccc3c(c2)NC(=O)CO3)cc1 | inconclusive: 8.2 µM [falling, single point] |
| COc1cccc(NC(=O)c2ccc(NC(=O)C(C)C)cc2)c1 | inconclusive: 3.26 µM [activator, full curve, poor fit] |
| COc1ccc(CN(C)C(=O)c2cccc(NS(=O)(=O)c3ccccc3)c2)c(OC)c1 | inconclusive: 29.1 µM [falling, single point] |
| Cc1ccc(-c2cc(C(=O)NCC(c3ccccc3)N(C)C)c3ccccc3n2)o1 (stereo unspecified) | inconclusive: 9.2 µM [activator, partial curve] |
| CCN(Cc1ccccc1)C(c1ccc(Cl)cc1)c1nnnn1C(C)(C)C (stereo unspecified) | inconclusive: 20.6 µM [falling, single point] |
| CC(=O)N1CC(C)Sc2ccc(S(=O)(=O)NC3CCCCC3C)cc21 (stereo unspecified) | inconclusive: 18.4 µM [falling, single point] |
| Cc1ccc(-c2nc3cc(Cl)ccc3o2)cc1NC(=O)COc1ccc(F)cc1 | inactive |
| COCCCNC(NC(=O)c1ccc(Cl)cc1)C(Cl)(Cl)Cl (stereo unspecified) | inconclusive: 29.1 µM [falling, single point] |
| O=C(Nc1cccc(F)c1)NC1CCCCCCC1 | inconclusive: 5.8 µM [activator, single point] |
| Cc1ccc(NC(=O)CCCc2ccccc2)c([N+](=O)[O-])c1 | inconclusive: 16.4 µM [activator, single point] |
| O=C(Cn1ncc2c3ccccc3n(Cc3ccccc3F)c2c1=O)NCCCN1CCCC1=O | inconclusive: 25.9 µM [falling, partial curve, poor fit] |

Quoted at random: 4 records from the list, in no set order.

| Structure (SMILES) | Potency |
| --- | --- |
| O=C(Cn1ncc2c3ccccc3n(Cc3ccccc3F)c2c1=O)NCCCN1CCCC1=O | inconclusive: 25.9 µM [falling, partial curve, poor fit] |
| COc1cccc(NC(=O)c2ccc(NC(=O)C(C)C)cc2)c1 | inconclusive: 3.26 µM [activator, full curve, poor fit] |
| Cc1ccc(-c2nc3cc(Cl)ccc3o2)cc1NC(=O)COc1ccc(F)cc1 | inactive |
| COc1ccc(C2C(C#N)=C(N)Oc3cc(O)ccc32)cc1C (stereo unspecified) | inactive |

(listing goes on)

| Structure (SMILES) | Potency |
| --- | --- |
| COc1ccc(CC(=O)N2CCN=C2SCc2ccc([N+](=O)[O-])cc2)cc1 | inconclusive: 23.1 µM [falling, partial curve, poor fit] |
| Cc1occc1C(=O)N/N=C/C=C/c1ccccc1 | inactive |
| COC(=O)N1C(=O)[C@@](c2ccccc2)(C2CCCC2)N1C(=O)OC | inactive |
| O=C(Nc1cc(C(F)(F)F)ccc1Cl)c1ccc(NC(=O)C(F)(F)F)cc1 | inconclusive: 9.2 µM [falling, partial curve, poor fit] |
| COc1cc2c(cc1OC)CN(C(=O)c1sccc1C)CC2 | inactive |
| CCOC(=O)CNC(=O)CN1CCC(c2nc3ccccc3[nH]2)CC1 | inconclusive: 18.4 µM [activator, partial curve, poor fit] |
| CCOc1ccccc1NC(=O)Cn1nnc(C(=O)Nc2ccc(C)c(C)c2)c1N | inactive |
| Cc1ccc(S(=O)(=O)N2CCCCC2)cc1C(=O)OCC(=O)N1c2ccccc2NC(=O)C1(C)C | inconclusive: 20.6 µM [falling, single point] |
| Cc1cc2c(s1)c1cnn(Cc3cccc4cccnc34)c(=O)c1n2C | inactive |
| CC(C)(C)OC(=O)N1CCC(c2c(C(=O)NC3CCCCC3)cnn2-c2cccc(Cl)c2)CC1 | inconclusive: 29.1 µM [falling, single point] |
| O=C(Nc1ccc(S(=O)(=O)NCC2CCCO2)cc1)c1ccc(F)cc1 (stereo unspecified) | active: 11.6 µM |
| CC1(C(=O)Nc2nc3ccccc3s2)CC1(Br)Br (stereo unspecified) | inconclusive: 1.16 µM [activator, full curve] |
| COc1ccc(N2CCN(C(=O)c3oc4ccccc4c3NC(=O)c3ccccc3OC)CC2)cc1 | inconclusive: 5.17 µM [falling, full curve, poor fit] |
| O=C(NCCN1CCOCC1)C1(C(F)(F)F)C/C(=C/CCO)CCCO1 (stereo unspecified) | inactive |
| COc1ccc2c(c1OC)C(=O)N1c3ccccc3C(=O)N(c3ccccc3F)C21 (stereo unspecified) | inconclusive: 11.6 µM [falling, partial curve, poor fit] |
| Clc1nc(Nc2ccc(N3CCOCC3)cc2)c2ccccc2n1 | inconclusive: 13 µM [falling, partial curve, poor fit] |
| Cc1nn(C)c(=O)n1-c1ccccc1 | inconclusive: 16.4 µM [activator, single point] |
| CC(NC(=O)c1cc(COc2c(F)cccc2F)on1)c1cnn(-c2ccccc2)c1 (stereo unspecified) | inconclusive: 3.66 µM [activator, full curve] |
| CCOC(=O)c1cc(-c2ccc(C)cc2)n(CCC(=O)Nc2ccc(OC)c(OC)c2)c1C | active: 18.4 µM |
| Cc1c(N2C(=O)/C(=C\c3ccccc3O)SC2=S)c(=O)n(-c2ccccc2)n1C | inconclusive: 29.1 µM [falling, single point] |
| N#Cc1cn(-c2ccccc2)nc1-c1ccc2c(c1)OCCO2 | inconclusive: 6.51 µM [activator, single point] |
| COC(=O)Nc1ccc(S(=O)(=O)NNC(=O)c2c(O)c3ccccc3[nH]c2=O)cc1 | inactive |
